Experimental data: PubChem BioAssay AID540256 (National Center for Advancing Translational Sciences (NCATS), 2011)
Hit rate of the full screen: of about 300,000 compounds, about 3,700 (1.2%) were called active. This list was built around the results that the source calls inconclusive (neither active nor inactive); the mix of calls is not that of the screen. Calls follow the shape of the full dose curve; tested in HEK293 cells. Where the call is inconclusive, the potency comes from a doubtful curve fit.

test: qHTS for Inhibitors of binding or entry into cells for Lassa Virus; conditions: Lassa virus pseudotype entry inhibition, cell reporter; series mostly up to 37.9 µM; also: nearly all actives have a fitted effect of over 50% in size
Potency is read from the fitted curve at half-maximal effect.

Q: With `COc1ccc(NC(=O)C(=O)NNC(=O)C(C)Oc2ccc(Cl)cc2Cl)cc1` (stereo not drawn) as the molecule, how does the Potency read?
A: inconclusive: 35.5 µM [inhibitor, partial curve, poor fit]

Q: Which Potency does the source give for `CCOC(=O)c1nnsc1NC(=O)Nc1ccc(OC)cc1` here?
A: inactive

Q: Which Potency does the source give for `Cc1ccccc1-n1c(=O)c2ccccc2n2cnnc12` here?
A: inconclusive: 6.51 µM [activator, single point]

Q: For `Cc1ccc(S(=O)(=O)N(C)Cc2ccc(C(=O)N/N=C/c3ccc(OC(F)F)cc3OC(F)F)cc2)cc1`, which Potency is on record?
A: inconclusive: 3.66 µM [inhibitor, partial curve]

Q: For `Cc1cc(Cl)ccc1NC(=O)CCS(=O)(=O)c1ccc2c(c1)CC(C)N2C(=O)C1CC1` (stereo not drawn), which Potency is on record?
A: inactive

Q: With `COc1ccc(CNC(=O)CCS(=O)(=O)c2cc3c4c(c2)CCN4C(=O)CC3)cc1OC` as the molecule, how does the Potency read?
A: inactive

Q: For `Cc1nn(-c2ccc(N3CCCCC3)nn2)c(C)c1CCC(=O)Nc1cc(F)ccc1F`, which Potency is on record?
A: inconclusive: 35.5 µM [inhibitor, single point]

Q: With `COc1ccc(NC(=O)c2ccc(CN3CCN(c4ccccc4)CC3)cc2)cc1` as the molecule, how does the Potency read?
A: inconclusive: 1.12 µM [inhibitor, full curve, poor fit]

Q: With `CN1c2ccccc2C(C)(C)[C@]12C=Cc1cc(O)ccc1O2` as the molecule, how does the Potency read?
A: inactive

Q: With `CCc1ccc(C(C(=O)NC(C)(C)CC)N(Cc2ccco2)C(=O)Cn2nnc3ccccc32)cc1` (stereo not drawn) as the molecule, how does the Potency read?
A: inactive

Q: Which Potency does the source give for `COc1ccccc1/C=N/NC(=O)c1cc2c(ccc3ccccc32)o1` here?
A: inconclusive: 35.5 µM [inhibitor, single point]

Q: For `COc1ccc(-c2nnc(Nc3nc4c(OC)cccc4s3)o2)c(OC)c1`, which Potency is on record?
A: inconclusive: 20.6 µM [inhibitor, single point]

Q: For `O=C1C(=O)N(Cc2cccc([N+](=O)[O-])c2)c2ccccc21`, which Potency is on record?
A: inconclusive: 8.91 µM [inhibitor, partial curve, poor fit]

Q: For `CC1(C)CC(=O)C2=C(C1)Oc1ncn(CCCn3ccnc3)c(=N)c1C2c1ccccc1` (stereo not drawn), which Potency is on record?
A: inactive

Q: With `O=C(Cc1cccc2ccccc12)N/N=C/c1ccncc1` as the molecule, how does the Potency read?
A: inactive

Q: With `COc1ccccc1CNC(=O)c1cc2cccc3c2n1CCS3` as the molecule, how does the Potency read?
A: inconclusive: 11.2 µM [inhibitor, partial curve, poor fit]

Q: With `CCOC(=O)CNc1nc(OCC#N)nc(N2CCOCC2)n1` as the molecule, how does the Potency read?
A: inconclusive: 0.146 µM [inhibitor, single point]

Q: With `COc1ccc([N+](=O)[O-])cc1NC(=O)CCSCCc1ccccn1` as the molecule, how does the Potency read?
A: inactive

Q: With `CC(C)NC(=O)C1=CC(c2ccc3c(c2)OCO3)=NS(=O)(=O)N1C` as the molecule, how does the Potency read?
A: inconclusive: 1.12 µM [activator, full curve, poor fit]

Q: Which Potency does the source give for `CN(C(=O)COC(=O)c1ccc([N+](=O)[O-])cc1N)c1ccccc1` here?
A: inconclusive: 1.26 µM [inhibitor, single point]

Q: With `N#Cc1ccccc1NC(=O)Nc1ccc(Cl)cc1` as the molecule, how does the Potency read?
A: inactive

Q: With `COc1ccc(C(=O)CN2C(=O)c3ccccc3C2=O)cc1` as the molecule, how does the Potency read?
A: inactive

Q: With `C1CCc2c(nnc3c2-c2nonc2CC3)C1` as the molecule, how does the Potency read?
A: inactive

Q: With `Cc1cc(N2CCCC2)nc2ccc(NC(=S)NCCCN3CCC(C)CC3)cc12` as the molecule, how does the Potency read?
A: inconclusive: 11.2 µM [inhibitor, partial curve, poor fit]

Q: Which Potency does the source give for `COc1ccc(C2C3=C(CC(C)(C)CC3=O)N(C)C3=C2C(=O)CC(C)(C)C3)cc1` here?
A: inactive

Q: With `O=C(CSc1nc2ccccc2n1S(=O)(=O)c1ccccc1)N1CCCC1` as the molecule, how does the Potency read?
A: inactive

Q: Which Potency does the source give for `Cc1cc(NC(=O)CSc2nc3c(cc2C#N)CCCC3)no1` here?
A: inconclusive: 0.794 µM [activator, partial curve, poor fit]

Q: Which Potency does the source give for `CCS(=O)(=O)N1N=C(c2cccc(NS(C)(=O)=O)c2)CC1c1ccc(C)cc1` (stereo not drawn) here?
A: inactive

Q: Which Potency does the source give for `Oc1ccc(/C=N/NC(=S)NCCN2CCOCC2)c(O)c1` here?
A: inconclusive: 5.8 µM [inhibitor, partial curve, poor fit]

Q: Which Potency does the source give for `COc1ccccc1C(=O)Nc1ccc(N2CCN(Cc3ccccc3)CC2)cc1` here?
A: inconclusive: 15.8 µM [inhibitor, single point]

Q: Which Potency does the source give for `CCCCCn1c(SCCCC)nc2c1c(=O)[nH]c(=O)n2C` here?
A: inconclusive: 9.2 µM [inhibitor, partial curve, poor fit]

Q: With `CCN(c1cccc(C)c1)S(=O)(=O)c1cc2c3c(c1)CCC(=O)N3CCC2` as the molecule, how does the Potency read?
A: inconclusive: 6.31 µM [inhibitor, partial curve, poor fit]

Q: For `Cc1sc(NC(=O)C2c3ccccc3Oc3ccccc32)c(C(=O)OC(C)C)c1C`, which Potency is on record?
A: inactive

Q: Which Potency does the source give for `O=C(CCSc1ccc(Cl)cc1)N1CCCCCC1` here?
A: inconclusive: 6.31 µM [activator, single point]

Q: For `C=CCNC(=S)Nc1sc2c(c1C(=O)OCC)CCN(C(=O)OCC)C2`, which Potency is on record?
A: inconclusive: 15.8 µM [inhibitor, single point]

Q: With `COc1ccc(NC(=O)Nc2nnc(C(C)C)s2)cc1` as the molecule, how does the Potency read?
A: inconclusive: 5.17 µM [activator, full curve, poor fit]

Q: Which Potency does the source give for `CN(C(=O)CSc1nncn2c1cc1occc12)c1ccccc1` here?
A: inactive

Q: Which Potency does the source give for `CCCCN(C)C(=O)CN1C(=O)c2cccnc2Oc2ccc(Cl)cc21` here?
A: inactive

Q: For `CC(C)(C)c1ccc(OCCC(=O)Nc2cccc(S(=O)(=O)N3CCOCC3)c2)cc1`, which Potency is on record?
A: inconclusive: 11.2 µM [inhibitor, single point]

Q: For `Cn1c(=O)[nH]c(=O)c2c1nc1n2CCS1`, which Potency is on record?
A: inconclusive: 6.31 µM [inhibitor, partial curve, poor fit]

Q: With `Cc1sc(NC(=O)c2ccccc2)c(C#N)c1-c1ccccc1` as the molecule, how does the Potency read?
A: inconclusive: 2.82 µM [activator, partial curve, poor fit]

Q: With `Cc1ccc(CNC(=O)c2ccc3c(c2)NC(=O)C(CS(=O)(=O)Cc2cccc(C)c2)N3)cc1` (stereo not drawn) as the molecule, how does the Potency read?
A: inactive

Q: Which Potency does the source give for `COc1cc(NC(=O)CCS(=O)(=O)c2ccc(Br)cc2)cc(OC)c1` here?
A: inactive

Q: For `CCOc1ccc(NC(=O)CN(c2ccc(OC)cc2)S(C)(=O)=O)cc1`, which Potency is on record?
A: inconclusive: 1 µM [activator, partial curve, poor fit]

Q: With `CCOC(=O)c1ccc(NC(=O)Nc2cc(C)on2)cc1` as the molecule, how does the Potency read?
A: inactive

Q: With `O=c1ccc(=O)n(-c2ccccc2)[nH]1` as the molecule, how does the Potency read?
A: inconclusive: 0.891 µM [inhibitor, partial curve, poor fit]

Q: Which Potency does the source give for `CC1(C)CC(N2CCOCC2)=CC(=[N+]2CCOCC2)C1` here?
A: inactive

Q: With `O=C(NCC(=O)N1CCCC1)c1ccc(Br)o1` as the molecule, how does the Potency read?
A: inactive

Q: Which Potency does the source give for `Cc1cc(C(=O)OCC(=O)N(C)c2ccccc2)ccc1[N+](=O)[O-]` here?
A: inactive

Q: For `O=C(Nc1ccc2c(c1)C(=O)OC2)c1ccccc1Cl`, which Potency is on record?
A: inactive

Q: With `CCCOc1ccc(C(=O)N(Cc2ccc(Cl)cc2)Cc2ccco2)cc1` as the molecule, how does the Potency read?
A: inactive

Q: With `CCOC(=O)c1cccc(-n2c(C)cc(C=O)c2C)c1` as the molecule, how does the Potency read?
A: inconclusive: 7.08 µM [inhibitor, full curve]

Q: With `Oc1ccc(C2=NN(c3ccccc3)C(c3ccc(F)cc3)C2)cc1` (stereo not drawn) as the molecule, how does the Potency read?
A: active: 11.2 µM

Q: Which Potency does the source give for `CC(=O)Nc1cccc(-c2csc(Nc3ccccn3)n2)c1` here?
A: inconclusive: 0.092 µM [activator, full curve, poor fit]

Q: With `COc1cc(C(C)=O)ccc1COc1ccc(C(=O)OCC(=O)NC(C)(C)C)cc1OC` as the molecule, how does the Potency read?
A: inconclusive: 12.6 µM [inhibitor, single point]

Q: With `COc1cc(C(=O)Nc2cc(C)c(O)c(-c3nc4cc(Cl)ccc4o3)c2)cc(OC)c1OC` as the molecule, how does the Potency read?
A: inactive

Q: Which Potency does the source give for `Cc1ccc(CSc2nnc(SCC(=O)N/N=C/c3c[nH]c4ccccc34)s2)cc1` here?
A: inconclusive: 25.1 µM [inhibitor, single point]

Q: For `CN1C(=O)CC(n2c(CO)nc3ccccc32)C1=O` (stereo not drawn), which Potency is on record?
A: inconclusive: 20.6 µM [activator, single point]

Q: With `Cc1cc(C)c(C2=NOC3C4CCC(C4)C23)c(C)c1` (stereo not drawn) as the molecule, how does the Potency read?
A: inactive

Q: Which Potency does the source give for `CC(=O)c1cc(C#N)c(SCc2ccccc2C#N)nc1C` here?
A: inconclusive: 11.2 µM [inhibitor, partial curve]

Q: With `COc1ccc(C(c2nnnn2Cc2ccccc2)N2CCN(c3ccccc3)CC2)cc1` (stereo not drawn) as the molecule, how does the Potency read?
A: inconclusive: 12.6 µM [inhibitor, partial curve, poor fit]

Q: With `O=C(NNC(=S)NC(=O)c1ccccc1[N+](=O)[O-])c1ccccc1O` as the molecule, how does the Potency read?
A: inconclusive: 35.5 µM [inhibitor, single point]

Q: Which Potency does the source give for `O=C(Nc1ccc(Cl)cc1)N1CCCC1` here?
A: inconclusive: 16.4 µM [activator, single point]

Q: Which Potency does the source give for `CN(C)c1ccc(/C=C2\CCCc3c2nc2ccccc2c3C(=O)O)cc1` here?
A: inconclusive: 3.55 µM [activator, single point]

Q: With `O=C(NC(=S)Nc1ccccc1N1CCCCC1)c1ccco1` as the molecule, how does the Potency read?
A: inactive

Q: With `COc1ccc(CCNC(=O)Cn2nnc(-c3cccs3)n2)cc1OC` as the molecule, how does the Potency read?
A: inactive

Q: For `S=c1[nH]nc(COc2ccccc2)n1/N=C/c1ccccc1Br`, which Potency is on record?
A: inconclusive: 12.6 µM [inhibitor, partial curve, poor fit]

Q: For `O=[N+]([O-])c1ccccc1-c1nc(-c2ccc(Br)o2)no1`, which Potency is on record?
A: inconclusive: 2.31 µM [activator, partial curve]

Q: For `CCn1c2ccccc2c2cc(NC(=O)COC(=O)c3cc(S(N)(=O)=O)c(Cl)cc3Cl)ccc21`, which Potency is on record?
A: inactive

Q: With `CCCOc1ccc(C2C(=O)N(C3CCCCCC3)CC(=O)N2C(C)C)cc1OC` (stereo not drawn) as the molecule, how does the Potency read?
A: inconclusive: 5.01 µM [activator, partial curve]

Q: With `CCCCNC(=S)Nc1ccc([N+](=O)[O-])cc1` as the molecule, how does the Potency read?
A: inconclusive: 35.5 µM [inhibitor, single point]

Q: With `COc1ccc(OCC(=O)N2CCN(Cc3ccc4c(c3)OCO4)CC2)cc1` as the molecule, how does the Potency read?
A: inconclusive: 8.91 µM [inhibitor, partial curve]

Q: With `O=C1/C(=C/N(C(=O)c2ccco2)c2ccc(Br)cc2)Sc2ccccc21` as the molecule, how does the Potency read?
A: inconclusive: 10 µM [inhibitor, partial curve, poor fit]
